PubChem BioAssay AID1259254 – NCATS – 2017
In all, the deposit lists about 59,000 reagents; below is a random part of them. Of all reagents, about 1,550 (2.6%) are marked active. 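G2 share is only a proxy for re-replication; each gene was hit by three separate siRNAs, and active genes were retested.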 A number with no mark means an inactive call. The numbers tell different reagents against one gene apart. Not all columns of the deposit are shown. Not given: the amount of reagent.

Aim: 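Genome-wide screen for genes that prevent DNA re-replication in cancer cells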 (primary screen)
Cell system: human HCT116 colorectal cancer cells
Reagents: single siRNA against human genes
Timing: 3 days
Measurement: 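Nuclei stained with Hoechst and imaged; cell-cycle phase assigned by DNA content; G2 share scaled per plate, non-targeting siRNA 0%, GMNN siRNA 100%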
Direction: G2 robust z-score and G2 cells, % of GMNN control: higher = more G2 cells, more excess DNA replication
Call rule: 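Active siRNAs have a G2 robust z of 5 or more median absolute deviations over the median, which in these data means about 38% or higher of GMNN control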

gene | reagent no. | G2 robust z-score | G2 cells, % of GMNN control
PCED1CP (PC-esterase domain containing 1C, pseudogene) | 1 | -0.734 | -2.19
PCED1CP (PC-esterase domain containing 1C, pseudogene) | 2 | -0.318 | 0.729
PCED1CP (PC-esterase domain containing 1C, pseudogene) | 3 | 1.05 | 10.3
ALDOA (aldolase, fructose-bisphosphate A) | 1 | 2.08 | 17.6
ALDOA (aldolase, fructose-bisphosphate A) | 2 | -1.16 | -5.18
ALDOA (aldolase, fructose-bisphosphate A) | 3 | 0.238 | 4.64
ST8SIA1 (ST8 alpha-N-acetyl-neuraminide alpha-2,8-sialyltransferase 1) | 1 | 2.4 | 19.9
ST8SIA1 (ST8 alpha-N-acetyl-neuraminide alpha-2,8-sialyltransferase 1) | 2 | 1.02 | 10.1
ST8SIA1 (ST8 alpha-N-acetyl-neuraminide alpha-2,8-sialyltransferase 1) | 3 | 1.6 | 14.2
MASP1 (MBL associated serine protease 1) | 1 | 1.19 | 11.4
MASP1 (MBL associated serine protease 1) | 2 | 5.11 (active) | 38.9
MASP1 (MBL associated serine protease 1) | 3 | 0.212 | 4.46
FAM89B (family with sequence similarity 89 member B) | 1 | 0.105 | 3.7
FAM89B (family with sequence similarity 89 member B) | 2 | -0.174 | 1.74
FAM89B (family with sequence similarity 89 member B) | 3 | 0.641 | 7.48
ACLY (ATP citrate lyase) | 1 | -0.104 | 2.24
ACLY (ATP citrate lyase) | 2 | -0.907 | -3.42
ACLY (ATP citrate lyase) | 3 | -0.0366 | 2.71
ST8SIA2 (ST8 alpha-N-acetyl-neuraminide alpha-2,8-sialyltransferase 2) | 1 | 0.0289 | 3.17
ST8SIA2 (ST8 alpha-N-acetyl-neuraminide alpha-2,8-sialyltransferase 2) | 2 | 0.526 | 6.67
ST8SIA2 (ST8 alpha-N-acetyl-neuraminide alpha-2,8-sialyltransferase 2) | 3 | -0.299 | 0.867
MGAT5 | 1 | 0.97 | 9.79
MGAT5 | 2 | 0.21 | 4.45
MGAT5 | 3 | -1.11 | -4.86
HADHB | 1 | 0.0386 | 3.24
HADHB | 2 | 0.816 | 8.71
HADHB | 3 | -1.24 | -5.78
CTDSP2 (CTD small phosphatase 2) | 1 | 0.353 | 5.45
CTDSP2 (CTD small phosphatase 2) | 2 | 1.02 | 10.1
CTDSP2 (CTD small phosphatase 2) | 3 | 0.718 | 8.02
KRTAP24-1 (keratin associated protein 24-1) | 1 | -0.135 | 2.01
KRTAP24-1 (keratin associated protein 24-1) | 2 | 0.307 | 5.12
KRTAP24-1 (keratin associated protein 24-1) | 3 | 3.38 | 26.7
SLC30A10 | 1 | 0.206 | 4.41
SLC30A10 | 2 | -0.111 | 2.19
SLC30A10 | 3 | -0.998 | -4.06
VPS35 (VPS35 retromer complex component) | 1 | 2.59 | 21.2
VPS35 (VPS35 retromer complex component) | 2 | 0.757 | 8.29
VPS35 (VPS35 retromer complex component) | 3 | -0.806 | -2.7
FASTKD2 (FASTK mitochondrial RNA regulator 2) | 1 | -0.633 | -1.49
FASTKD2 (FASTK mitochondrial RNA regulator 2) | 2 | 0.289 | 5
FASTKD2 (FASTK mitochondrial RNA regulator 2) | 3 | -0.0213 | 2.82
C1orf185 (chromosome 1 open reading frame 185) | 1 | 0.828 | 8.79
C1orf185 (chromosome 1 open reading frame 185) | 2 | 6.38 (active) | 47.9
C1orf185 (chromosome 1 open reading frame 185) | 3 | 1.09 | 10.7
LOC401478 | 1 | -0.156 | 1.87
LOC401478 | 2 | 1 | 10
LOC401478 | 3 | -0.725 | -2.13
CHPT1 (choline phosphotransferase 1) | 1 | 0.367 | 5.55
CHPT1 (choline phosphotransferase 1) | 2 | -0.554 | -0.932
CHPT1 (choline phosphotransferase 1) | 3 | 0.871 | 9.1
MAGEA1 (MAGE family member A1) | 1 | -0.175 | 1.74
MAGEA1 (MAGE family member A1) | 2 | 0.517 | 6.6
MAGEA1 (MAGE family member A1) | 3 | 2.02 | 17.2
CCR6 (C-C motif chemokine receptor 6) | 1 | 0.733 | 8.12
CCR6 (C-C motif chemokine receptor 6) | 2 | 1.97 | 16.8
CCR6 (C-C motif chemokine receptor 6) | 3 | -0.441 | -0.133
BCL7C (BAF chromatin remodeling complex subunit BCL7C) | 1 | -1.47 | -7.39
BCL7C (BAF chromatin remodeling complex subunit BCL7C) | 2 | 0.0255 | 3.15
BCL7C (BAF chromatin remodeling complex subunit BCL7C) | 3 | -0.17 | 1.77
TENT4A (terminal nucleotidyltransferase 4A) | 1 | -0.722 | -2.11
TENT4A (terminal nucleotidyltransferase 4A) | 2 | 0.9 | 9.3
TENT4A (terminal nucleotidyltransferase 4A) | 3 | -0.21 | 1.49
ST6GALNAC1 (ST6 N-acetylgalactosaminide alpha-2,6-sialyltransferase 1) | 1 | 0.481 | 6.35
ST6GALNAC1 (ST6 N-acetylgalactosaminide alpha-2,6-sialyltransferase 1) | 2 | 0.167 | 4.14
ST6GALNAC1 (ST6 N-acetylgalactosaminide alpha-2,6-sialyltransferase 1) | 3 | -0.129 | 2.06
TMEM266 (transmembrane protein 266) | 1 | -0.0975 | 2.28
TMEM266 (transmembrane protein 266) | 2 | 1.96 | 16.7
TMEM266 (transmembrane protein 266) | 3 | -0.629 | -1.46

Active calls, of those listed so far:
gene | reagent no. | G2 robust z-score | G2 cells, % of GMNN control
MASP1 (MBL associated serine protease 1) | 2 | 5.11 (active) | 38.9
C1orf185 (chromosome 1 open reading frame 185) | 2 | 6.38 (active) | 47.9
